These are yes or no findings as the source states them, for the method shown. Binding seen in cells or lysates may run through a third protein. Where a sequence is shown, tags or fusion partners need not be part of it.

Results on 2 substances are retold here after paper PMC4172902.

Assay [1] has as its target T1, hMCC-SBP-6×His (human MCC isoform 1 with a C-terminal SBP-6×His tag) (human) (UniProt P23508).
T1 sequence: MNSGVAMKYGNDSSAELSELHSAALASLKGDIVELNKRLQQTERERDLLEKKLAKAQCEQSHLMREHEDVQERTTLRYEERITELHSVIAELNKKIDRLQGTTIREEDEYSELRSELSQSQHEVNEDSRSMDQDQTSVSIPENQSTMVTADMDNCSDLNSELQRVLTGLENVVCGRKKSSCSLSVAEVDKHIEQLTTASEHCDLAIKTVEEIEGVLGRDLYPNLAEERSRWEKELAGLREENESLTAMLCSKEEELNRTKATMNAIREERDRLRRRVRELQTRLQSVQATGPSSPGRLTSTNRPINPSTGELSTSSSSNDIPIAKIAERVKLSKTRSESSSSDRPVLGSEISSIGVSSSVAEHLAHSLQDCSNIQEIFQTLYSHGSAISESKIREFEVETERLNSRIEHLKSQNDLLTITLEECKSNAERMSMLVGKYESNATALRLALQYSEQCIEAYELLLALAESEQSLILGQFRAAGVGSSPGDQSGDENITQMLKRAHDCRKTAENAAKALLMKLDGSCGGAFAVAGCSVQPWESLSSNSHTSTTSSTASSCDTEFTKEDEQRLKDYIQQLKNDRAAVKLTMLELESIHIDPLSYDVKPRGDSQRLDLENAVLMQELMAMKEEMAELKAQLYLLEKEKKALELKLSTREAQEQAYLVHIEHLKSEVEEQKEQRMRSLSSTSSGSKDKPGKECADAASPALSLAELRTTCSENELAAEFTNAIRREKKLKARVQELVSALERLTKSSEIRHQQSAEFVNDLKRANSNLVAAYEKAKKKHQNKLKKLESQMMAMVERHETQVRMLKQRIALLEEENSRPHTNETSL
The assay can be described thus: co-IP; whole cell CHAPS lysates of transduced 8226 cells; anti-FLAG-agarose beads (FLAG-hMCC) or streptavidin-sepharose beads (hMCC-SBP-6×His); 5 washes in 0.5% CHAPS, 20 mM Tris pH 7.4, 150 mM NaCl; immunoblot. (In general: Immunoblotting shows a protein as a band on a membrane.)

Assay [2] concerns the target T2, FLAG-hMCC (human MCC isoform 1 with an N-terminal FLAG tag) (human) (UniProt P23508).
T2 sequence: T1 sequence
The description is as above.

In the case of PP2A (human (endogenous in 8226)), the binding result in assay [1] and in assay [2] was “no binding” in each case.

In the case of VDAC (human (endogenous in 8226)), the binding result in assay [1] and in assay [2] was “no binding” in each case.
